These are yes or no findings as the source states them, for the method shown.

By UniProt entry, the sequences of proteins in these tests, tags left out. Where a name states a change or a piece, a line headed by the entry shows the natural chain unless it says otherwise.
UniProt P25342: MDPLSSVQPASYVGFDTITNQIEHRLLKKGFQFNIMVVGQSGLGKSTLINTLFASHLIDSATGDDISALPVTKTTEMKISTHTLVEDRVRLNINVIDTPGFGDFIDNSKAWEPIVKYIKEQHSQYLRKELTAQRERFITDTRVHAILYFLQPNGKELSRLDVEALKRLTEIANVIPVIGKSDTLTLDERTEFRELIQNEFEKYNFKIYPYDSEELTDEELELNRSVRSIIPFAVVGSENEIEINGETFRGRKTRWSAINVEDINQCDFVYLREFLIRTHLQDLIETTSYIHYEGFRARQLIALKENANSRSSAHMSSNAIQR
UniProt P32457: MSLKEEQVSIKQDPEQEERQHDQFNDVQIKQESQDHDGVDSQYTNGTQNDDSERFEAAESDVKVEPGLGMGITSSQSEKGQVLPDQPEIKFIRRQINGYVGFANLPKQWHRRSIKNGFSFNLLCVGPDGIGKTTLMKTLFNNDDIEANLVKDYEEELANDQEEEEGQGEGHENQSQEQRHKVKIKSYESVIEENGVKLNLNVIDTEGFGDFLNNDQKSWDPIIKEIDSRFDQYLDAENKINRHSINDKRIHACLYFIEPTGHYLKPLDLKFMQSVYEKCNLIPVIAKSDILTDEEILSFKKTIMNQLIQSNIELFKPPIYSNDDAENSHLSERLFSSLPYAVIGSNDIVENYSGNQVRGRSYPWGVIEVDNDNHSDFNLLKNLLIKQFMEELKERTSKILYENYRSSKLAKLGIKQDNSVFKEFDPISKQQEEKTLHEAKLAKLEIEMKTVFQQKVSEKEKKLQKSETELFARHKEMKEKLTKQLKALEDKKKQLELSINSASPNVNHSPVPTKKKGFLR
UniProt P32468: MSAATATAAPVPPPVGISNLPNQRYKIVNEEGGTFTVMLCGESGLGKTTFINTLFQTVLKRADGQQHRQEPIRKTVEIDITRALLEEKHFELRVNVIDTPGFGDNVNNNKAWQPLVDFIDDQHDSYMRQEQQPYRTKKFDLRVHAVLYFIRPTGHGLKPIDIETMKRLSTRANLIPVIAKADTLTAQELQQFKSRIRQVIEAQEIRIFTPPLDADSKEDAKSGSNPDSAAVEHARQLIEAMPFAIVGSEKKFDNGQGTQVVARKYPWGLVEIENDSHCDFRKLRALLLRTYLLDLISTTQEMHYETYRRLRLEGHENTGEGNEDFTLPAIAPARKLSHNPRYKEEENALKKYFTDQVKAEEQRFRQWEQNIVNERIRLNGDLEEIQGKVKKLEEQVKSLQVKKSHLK
UniProt P32458: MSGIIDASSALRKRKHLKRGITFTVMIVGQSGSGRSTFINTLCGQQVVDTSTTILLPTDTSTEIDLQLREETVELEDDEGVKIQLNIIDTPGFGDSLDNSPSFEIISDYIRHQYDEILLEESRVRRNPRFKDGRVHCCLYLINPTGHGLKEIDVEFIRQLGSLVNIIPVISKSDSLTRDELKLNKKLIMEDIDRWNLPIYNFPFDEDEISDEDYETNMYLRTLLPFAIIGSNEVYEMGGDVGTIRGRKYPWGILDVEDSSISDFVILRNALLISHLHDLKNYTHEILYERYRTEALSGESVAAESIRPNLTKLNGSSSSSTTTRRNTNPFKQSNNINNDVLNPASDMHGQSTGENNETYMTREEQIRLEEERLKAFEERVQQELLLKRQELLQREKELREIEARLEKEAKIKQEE

The target in the experiment is budding yeast septin complex Cdc10-GFP-Cdc3-Cdc12-Cdc11 (budding yeast) (UniProt P25342+P32457+P32468+P32458). Kind of experiment: fluorescence microscopy of binding to GUVs.

On to “streptavidin labeled with Atto647N (from UniProt P22629 25-183)”, for which the binding entry is “no binding”.

The values above are taken from article doi:10.1101/2025.10.08.681182.
